Among the data in patent US6680295B1, “Method and pharmaceutical composition for prevention and treatment of brain damage” (priority 1994, dated 2004) are binding values, retold here.

Amino acid sequences for entries named in this document (tags omitted). Residues count along the entry.
UniProt P32215, residues 20-523: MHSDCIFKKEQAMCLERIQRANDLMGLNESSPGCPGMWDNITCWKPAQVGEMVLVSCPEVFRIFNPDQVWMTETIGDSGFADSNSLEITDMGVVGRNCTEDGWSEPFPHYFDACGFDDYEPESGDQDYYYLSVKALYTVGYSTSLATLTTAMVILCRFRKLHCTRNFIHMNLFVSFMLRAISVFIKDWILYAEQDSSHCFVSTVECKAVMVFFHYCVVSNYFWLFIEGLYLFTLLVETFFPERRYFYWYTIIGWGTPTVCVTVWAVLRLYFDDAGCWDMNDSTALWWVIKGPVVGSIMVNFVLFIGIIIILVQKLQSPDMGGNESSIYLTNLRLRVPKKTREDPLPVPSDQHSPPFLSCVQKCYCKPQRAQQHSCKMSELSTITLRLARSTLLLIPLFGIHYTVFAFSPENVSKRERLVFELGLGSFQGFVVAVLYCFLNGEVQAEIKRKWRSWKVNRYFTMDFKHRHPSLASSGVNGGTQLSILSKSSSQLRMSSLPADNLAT

In the assay the target is PACAP receptor (PACAP binding sites) in rat brain membrane preparations (rat) (UniProt P32215). Kind of assay: radioreceptor assay, displacement of 125I-PACAP27 from E18 rat brain membranes.

No constants are given. Whether binding was seen depends on the method and setting. Some results given as binding are weak or reduced against the parent protein; the word gives no strength.

B1: Pituitary adenylate cyclase activating polypeptide, complete form with 38 amino acids (PACAP38) (peptide)
peptide: HSDGIFTDSYSRYRKQMAVKKYLAAVLGKRYKQRVKNK
modifications: C-terminal amide (NH2 attached to the C-terminal Lysine)
Consider B1, for which the binding entry is listed as “binds”.
